The other results are listed elsewhere or left out.

Sequences of proteins named here, by UniProt entry; tags and fusion partners are left off.
UniProt Q0JBA9, entry or part of it: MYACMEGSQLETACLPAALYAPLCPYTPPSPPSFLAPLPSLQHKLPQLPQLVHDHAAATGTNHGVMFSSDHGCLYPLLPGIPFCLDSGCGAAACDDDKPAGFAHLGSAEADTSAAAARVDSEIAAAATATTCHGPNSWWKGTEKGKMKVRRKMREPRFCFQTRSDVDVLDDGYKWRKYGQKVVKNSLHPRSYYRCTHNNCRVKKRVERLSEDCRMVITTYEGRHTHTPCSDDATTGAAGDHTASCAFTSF

In the test the target is OsWRKY34 (Oryza sativa, UniProt Q0JBA9 1-250). In words: protein-binding microarray (RPBM); PBS, 2% BSA, 51.3 ng/ul salmon testes DNA, 50 uM zinc acetate, 200 nM TF, 25 C, 1 h; high values mean tight binding. The settings on record: protein: recombinant; tags: N-terminal polyhistidine and DsRed monomer fusion (pET32a); label: CyDye5-dUTP incorporated in the synthesized complementary strand; 3' TTTTT single-stranded linker to array surface; dsDNA, one strand shown. In outline:
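An Axon 4000B scanner gave the binding signal as per-feature fluorescence intensity in arbitrary units. This followed washing of a custom Agilent array that had been incubated for 1 h at 25 °C with 200 nM protein in PBS, 2% BSA, salmon testes DNA and 50 µM zinc acetate. The proteins were transcription factors fused at the N-terminus to polyhistidine and DsRed, expressed in E. coli BL21-CodonPlus and purified on Ni–NTA.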
Consider “CTAACGCGCTCGCTTCCTTCCCGCCTCGCCTCAACGCAAACGGAGTCACCTAGTGCAG”, for which the binding signal was 9770 fluorescence intensity (a.u.). In the case of “AGCACATAGCTAGTTAGCCACATATTATTTGATCACTAAACGGAGTCACCTAGTGCAG” it was 8980 fluorescence intensity (a.u.); in that of “GATAATTCTTATGTTACTGACTAATATGATAGTACTGAGTCGGAGTCACCTAGTGCAG”, 8140 fluorescence intensity (a.u.); in that of “TATATTTTGTCATTCTCTCTAAATGTTTTTGATGATTTTCCGGAGTCACCTAGTGCAG”, 10600 fluorescence intensity (a.u.). In the case of “CTTTCTTTCACGTGATGACTTTTTGGTTGGACTTTCCACCCGGAGTCACCTAGTGCAG” it was 8740 fluorescence intensity (a.u.); in that of “GTAGCTCTGTTGTTCGGTTGTTCTGCTCAATGGCCGCTCGCGGAGTCACCTAGTGCAG”, 8050 fluorescence intensity (a.u.).

For the sequence “AATGGGCTAATGGGCCTCCAAATTGTATTATATGGGCTTTCGGAGTCACCTAGTGCAG”, the binding signal was 8220 fluorescence intensity (a.u.). The figure for “TAAACACATCCATCCCTTATGTCCAAAGCATCACTACACACGGAGTCACCTAGTGCAG” is 8440 fluorescence intensity (a.u.); for “ACCTCAGACAACCGCCGATGCCCCTGATTTCCGATTTGTTCGGAGTCACCTAGTGCAG” it is 11400 fluorescence intensity (a.u.).

“TGAACGCTTCCCTGTGTTTGTGGTTACTGCCTTACTGGTTCGGAGTCACCTAGTGCAG”: the binding signal is 9210 fluorescence intensity (a.u.). The figure for “ATTACGGCGTCTCCTCGCCCACAGGTTGCCGCTGCAGTTTCGGAGTCACCTAGTGCAG” is 9430 fluorescence intensity (a.u.); for “AGCCTTGTGTGTGTTTTGCGCTCGCGGCCGCCGCTATTTTCGGAGTCACCTAGTGCAG” it is 9270 fluorescence intensity (a.u.); for “CCACTTTTTTTTTCTTTTTCTTCGGTTTTTCTCTTCATCACGGAGTCACCTAGTGCAG” it is 9040 fluorescence intensity (a.u.).

Regarding “TTCAGTCATTTTTCATCACATCAATCTATCATACACACACCGGAGTCACCTAGTGCAG”, the binding signal was 8180 fluorescence intensity (a.u.). As for “CCTGCCAATCCCGCCACGTTCTTGCGGCCCAGCCATCCATCGGAGTCACCTAGTGCAG”, the binding signal is 8300 fluorescence intensity (a.u.).

For “TTTTATTGTTGGGTGTGTTTAATTTTATTTGAACTTCACTCGGAGTCACCTAGTGCAG”, the binding signal is 8360 fluorescence intensity (a.u.).

“TGTAGTGTTATTTGTCCCACCCATCACTGCACACCTCATTCGGAGTCACCTAGTGCAG”: the binding signal was 8610 fluorescence intensity (a.u.).

For “TGCTATTGGGATTATTTTTGTTCCCACAACCGCTTTATTTCGGAGTCACCTAGTGCAG”, the binding signal is 8300 fluorescence intensity (a.u.). In the case of “TCATAACCTTCTACAATTTAAATTATCCACCTTTTTTTTCCGGAGTCACCTAGTGCAG” it was 10700 fluorescence intensity (a.u.). The figure for “CCACCTGCCAGCCTGTACCCACCCCTCCCTACTGTTATACCGGAGTCACCTAGTGCAG” is 8640 fluorescence intensity (a.u.); for “GTTTATTACGTGGATCTGTGAATTTGTTCATTGTGGACCTCGGAGTCACCTAGTGCAG” it is 8740 fluorescence intensity (a.u.); for “TCGCATTTGTTAGTTTTCCATCGCCGATTGATACATACATCGGAGTCACCTAGTGCAG” it is 9650 fluorescence intensity (a.u.). In the case of “CGTCGTGGCGGGTTCATCGGGAGGGGATTATTGATTTAGTCGGAGTCACCTAGTGCAG” it was 21100 fluorescence intensity (a.u.); in that of “GAGGGTGGGTGCTTGCTGGCCAGACATTAAAACAATGTGTCGGAGTCACCTAGTGCAG”, 9670 fluorescence intensity (a.u.). As for “CGTTACACGTTGCACTGCACTTGTCTCACTGTATTAATTCCGGAGTCACCTAGTGCAG”, the binding signal was 9730 fluorescence intensity (a.u.). The figure for “CATCTTTTGTTCGAATACCTATTTTACTCTTAGCAATCAACGGAGTCACCTAGTGCAG” is 10700 fluorescence intensity (a.u.). “TCCGATCCGCGCGCTCCCACCACCTGCGCCTCGCATCCTACGGAGTCACCTAGTGCAG”: the binding signal is 10300 fluorescence intensity (a.u.). The figure for “CAACTCCAGGTCAATTAATTCCCTAAATCATTTTTCAGTTCGGAGTCACCTAGTGCAG” is 8600 fluorescence intensity (a.u.). Regarding “CTTACCCACATCTCATTTTTACACTGCAGCACCTGTCAGTCGGAGTCACCTAGTGCAG”, the binding signal was 9280 fluorescence intensity (a.u.).

With “TTTTCCGCCACTTACACAGTAGTTACACCTCATTTACACCCGGAGTCACCTAGTGCAG”, the binding signal was 11300 fluorescence intensity (a.u.).

With “TCCTCTTCACTCTCCAGCAGCTCAGCTAGTCAGCTCTACACGGAGTCACCTAGTGCAG”, the binding signal is 8550 fluorescence intensity (a.u.). In the case of “GCTTGGATTTCTCATCTCCATTATCTTGCATTCTTGTTCTCGGAGTCACCTAGTGCAG” it was 8380 fluorescence intensity (a.u.). The figure for “CTATGATCGCACGCACGCAAACCCTATCCCTATGAGCATTCGGAGTCACCTAGTGCAG” is 11800 fluorescence intensity (a.u.). In the case of “TCATCCCGATCTCCGCCTCCGGGCTCCACCGTGCGCTCCCCGGAGTCACCTAGTGCAG” it was 9020 fluorescence intensity (a.u.).

With “AATCGTTCGATATTTCGGTGCCACCGAAATTTTCCTGCTTCGGAGTCACCTAGTGCAG”, the binding signal was 8110 fluorescence intensity (a.u.). In the case of “TTAAATTCATCTGTGCCCATAACCACATCTCTGATCTCTCCGGAGTCACCTAGTGCAG” it was 9970 fluorescence intensity (a.u.). For the sequence “ACTCCCTCCATCTATTTTTTATAGTCATATTTCATCTCGGCGGAGTCACCTAGTGCAG”, the binding signal is 8720 fluorescence intensity (a.u.).

On to “GTTCGTCTCGCGCCGCTTATTTATTTTTTTTGTTGTGTCCCGGAGTCACCTAGTGCAG”, for which the binding signal was 10300 fluorescence intensity (a.u.). The figure for “AACATCCTCCTCTTCCGCCGCGCGCTTCCTCGCCACCGTCCGGAGTCACCTAGTGCAG” is 8470 fluorescence intensity (a.u.); for “TCTTTATTTACCTTTTTTTGAGTCGGACTTCTTTTTCTTTCGGAGTCACCTAGTGCAG” it is 8240 fluorescence intensity (a.u.).

For “ACGCCATAGCCATGCACCATGTCCTCCCTAGTCATTTTTTCGGAGTCACCTAGTGCAG”, the binding signal was 8210 fluorescence intensity (a.u.). The figure for “GCTGCCTCGTCTCTTATTCTTTGCAAGACTCCAGATCTTCCGGAGTCACCTAGTGCAG” is 9870 fluorescence intensity (a.u.).

These data come from article PMC7819943, “Rice protein-binding microarrays: a tool to detect cis-acting elements near promoter regions in rice”.
